Source: article PMC12040169 (PLOS Biology, 2025)
Some of the results follow.

tested on: T1, CTL2-GFP (C. trachomatis L2/434/Bu, GFP-expressing); set-up: species or system HeLa; Intracellular C. trachomatis growth in HeLa cells, bulk GFP fluorescence relative to DMSO; conditions: bulk GFP, single well; 28.5 h, 10 µM; inhibitor
T1 construct: L2/434/Bu, GFP-expressing

Point of comparison: CCCC(=O)c1ccc(S(=O)(=O)N2CCN(Cc3cccc(F)c3C)CC2)cc1 [CBK063152], “% of control remaining” value 148.624%. Against it:
- CO/C(=N\S(=O)(=O)c1ccccc1)c1ccccc1 [CBK023221] — lower, 119.759%
- Clc1ccc(-c2nccnc2OCc2ccccn2)cc1Cl [CBK107108] — lower, 93.2219%
- CCOc1ccccc1NC(=O)C(C)Oc1ccc(OC)cc1 (centres unmarked) [CBK266648] — lower, 93.7727%
- COc1cc(CNc2nccnc2-c2ccco2)cc(OC)c1OC [CBK037320] — lower, 146.066%
- Cn1c(=O)c2c(nc(CN3CCN(Cc4ccccc4)CC3)n2CCc2ccccc2)n(C)c1=O [CBK269523] — lower, 133.38%
- CCCC/C=C/c1cnc(N)c(Nc2ccc(OC)cc2)n1 [CBK063890] — lower, 122.51%
- CN1C(=O)COc2ccccc2C/C=C/C[C@@H]2[C@H]1CCCN2S(=O)(=O)N1CCOCC1 [CBK292063] — lower, 144.331%
- Cc1c(Br)c([N+](=O)[O-])nn1C(C)C(=O)Nc1sc2c(c1C(N)=O)CCCC2 (centres unmarked) [CBK268914] — lower, 121.106%
- Cc1cc(COc2nc3ccccc3nc2NC(C)C(C)C)no1 (centres unmarked) [CBK174007] — lower, 124.894%
- O=C(NCCc1ccc(Cl)cc1)C1(Cc2ccc(-c3ccncc3)cc2)CCOCC1 [CBK285570] — lower, 56.1081%
- Cc1onc(-c2ccccc2)c1C(=O)N1CCN(CCN2CCCC2)CC1 [CBK158558] — lower, 118.6%
- O=C(O)c1cccc(Sc2cccc(C(F)(F)F)n2)c1 [CBK093592] — lower, 100%
- NS(=O)(=O)c1ccc(CCNC(=O)c2ccc(C#CC3(O)CCCCC3)cc2)cc1 [CBK263104] — lower, 111.449%
- CCOc1ccc(N2C(=O)CC(N3CCN(CCc4ccccn4)CC3)C2=O)cc1 (centres unmarked) [CBK270149] — lower, 116.295%
- Cc1ccc2oc(-c3ccc(O)cc3)nc2c1 [CBK093878] — lower, 80.2623%
- O=C(Nc1cccc(NS(=O)(=O)c2ccc(Cl)cc2)c1)c1ccco1 [CBK265956] — lower, 119.04%
- Cc1cccn2cc(CCNC(=O)CN3Cc4ccccc4C3)nc12 [CBK305166] — higher, 152.855%
- COc1ccccc1CCC(=O)Nc1cnn(C)c1 [CBK287995] — lower, 84.9865%
- OC1(c2cccnc2F)CCN(Cc2ccc(F)c(F)c2)CC1 [CBK284370] — lower, 130.462%
- Cc1csc2c(C3CCN(C(=O)c4cscn4)CC3)nc(C)n12 [CBK285246] — lower, 138.715%
- COc1ccc(C(=O)c2oc3cc(NC(=O)c4cccnc4)ccc3c2C)cc1 [CBK287652] — lower, 132.329%
- COc1cc(Cl)c(C)cc1NC(=O)C1CC=CCC1C(=O)O (centres unmarked) [CBK296667] — lower, 117.762%
- Cc1ccc(CNC(=O)CSc2nc(C)c(C)c(=O)[nH]2)cc1 [CBK287735] — lower, 121.224%
- NS(=O)(=O)c1ccc(C(=O)N2CCC3(CCN(C(=O)c4ccoc4)C3)C2)cc1 (centres unmarked) [CBK131736] — lower, 85.5352%
- Cc1cc(=O)n2c3c(cc(S(=O)(=O)NC4CC4)cc13)CCC2 [CBK307572] — lower, 114.221%
- CCc1ccc(OC)c(S(=O)(=O)NC2CC(C)(C)NC(C)(C)C2)c1 [CBK270098] — higher, 166.425%
- NS(=O)(=O)c1ccc(CCNC(=O)/C=C/c2ccc([N+](=O)[O-])cc2)cc1 [CBK265683] — lower, 89.5111%
- CNS(=O)(=O)c1cc(C(=O)O)ccc1OC [CBK270179] — lower, 92.5026%
- Cc1cc(Cl)cc(Cl)c1S(=O)(=O)Nc1cccc(C(=O)O)c1 [CBK155682] — lower, 141.717%
- COc1ccc(Cn2c(-c3ccc(OC)c(O)c3)nc3ccccc32)cc1O [CBK263370] — lower, 100.966%
- COc1cc(CCN2C(=O)c3cccc4cccc(c34)C2=O)c(S(=O)(=O)N2CCCC2)cc1OC [CBK264947] — lower, 108.351%
- COc1nc2ccccc2nc1CCC(=O)NCc1ccco1 [CBK269866] — lower, 140.224%
- CCCC(=O)Nc1ccc(-c2csc(N3CCN(C)CC3)n2)cc1 [CBK305025] — lower, 105.092%
- COc1ccccc1-c1cnc(N)c(N2CCC(C(=O)O)CC2)n1 [CBK064082] — higher, 186.238%
- COc1ccc(-c2ccc(C(=O)NCCN3CCOCC3)c(N(C)C(C)=O)n2)cc1 [CBK076545] — lower, 103.712%
- Cc1nc2cc(OCc3nc(C(=O)NCC4CCOC4)co3)ccc2s1 (centres unmarked) [CBK307508] — higher, 159.139%
- Cc1c(F)cccc1CNCC1CCN(C(=O)OC(C)(C)C)CC1 [CBK056717] — higher, 174.537%
- CC(C)(C)OC(=O)N1CCN(c2ccnc(N)n2)CC1 [CBK003529] — lower, 119.447%
- COc1ccc(-c2noc(CSc3nnc(-c4c[nH]c5ccccc45)n3C)n2)cc1OC [CBK268644] — higher, 167.017%
- CCN(CC)C(=O)C1CCCN(C2CCN(C(=O)c3c4ccccc4cc4ccccc34)CC2)C1 (centres unmarked) [CBK066966] — lower, 127.123%
- CCN(CC)c1c(C)nc2ccc(C(=O)NCCN3CCNC3=O)cn12 [CBK145977] — lower, 110.77%
- Cc1ccc(C(C)NC(=O)C2CCCN(S(C)(=O)=O)C2)c(C)c1 (centres unmarked) [CBK304349] — lower, 126.317%
- N#Cc1nc(-c2ccccc2F)oc1NCCCN1CCOCC1 [CBK265881] — lower, 128.311%
- O=S(=O)(c1ccccc1)c1nc(-c2ccco2)oc1NCCCn1ccnc1 [CBK267670] — lower, 127.297%
- Cc1ccc2c(c1)cc(C)c1nn(CC(=O)NC(C)C)c(=O)n12 [CBK283874] — lower, 130.42%
- Nc1ncc(-c2cccc(O)c2)nc1N1CCC(C(=O)O)CC1 [CBK063405] — higher, 170.681%
- CCOc1ccc(-n2c(C)cc(C(=O)NS(=O)(=O)c3ccc(C)cc3)c2C)cc1 [CBK296084] — higher, 169.979%
- Cc1cc2c(=O)n(CC(=O)NCc3ccccn3)cnc2s1 [CBK071900] — lower, 55.2185%
- Fc1ccc(-n2c(C3CC3)n[nH]c2=S)cc1Cl [CBK288364] — lower, 132.886%
